For four molecules, binding results are on record in article PMC12846431.

These are yes or no findings as the source states them, for the method shown. Tags and fused reporters may be left off the sequences shown.

B1: MBP-ICL4 (Serinc3 intracellular loop 4, 354–404, fused to MBP) (domain or fragment, UniProt Q13530 354-404)
chain: RTSTNSQVDKLTLSGSDSVILGDTTTSGASDEEDGQPRRAVDNEKEGVQYS

This assay concerns the target MBP-Nef (HIV-1 NL4.3 Nef 26–206 fused to an N-terminal 6xHis-MBP tag) (HIV-1 (NL4.3)) (UniProt Q90VU7). Description: SEC; both purified.
“MBP-ICL3 (Serinc3 intracellular loop 3, 259–267, fused to MBP) (from UniProt Q13530 259-267) (domain or fragment)”: the binding entry was “no binding (tested: 0.5 mg each in 500 μL)”.
With “MBP-ICL2 (Serinc3 intracellular loop 2, 181–204, fused to MBP) (from UniProt Q13530 181-204) (domain or fragment)” the entry was “no binding (tested: 0.5 mg each in 500 μL)”.
On to “MBP-ICL1 (Serinc3 intracellular loop 1, 120–131, fused to MBP) (from UniProt Q13530 120-131) (domain or fragment)”, for which the binding entry is on record as “no binding (tested: 0.5 mg each in 500 μL)”.
Regarding B1, the binding entry is listed as “no binding (tested: 0.5 mg each in 500 μL)”.
